In PubChem BioAssay AID2685 (National Center for Advancing Translational Sciences (NCATS), 2010) one finds cell number change and AC50 data, which are given here for 57 compounds.

The list shows a part of the results. These are further read-outs of the screen, such as a control signal, another cell line or another target. No call is given for them. The list favours compounds with an active or inconclusive main result. Words in brackets tell the shape of the fitted curve; partial curves, single points and poor fits give uncertain potencies.

A short description of this assay: qHTS Assay for Lipid Storage Modulators in Drosophila S3 Cells.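 As to cell number change: cells counted by Cell Tracker Red CMTPX staining in the red channel.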 As to conditions: BODIPY lipid droplet fluorescence, 18-24 h; for cell number change: measured here: cell count max response, cells fed with added oleic acid. A digest of the protocol:
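Laser-scanning cytometry quantifies lipid droplet accumulation (500–530 nm total intensity; droplet/cell object ratio) in oleic acid-fed (400 uM added) Drosophila S3 cells treated with a concentration series. 20 uM Triacsin C defined 100% inhibition.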
On the technique in general: qHTS replaces the single test concentration by a dilution series.

[1] abbreviates: measured here: cell number channel AC50, cells fed with added oleic acid.
Setting [2] is: measured here: lipid fluorescence (Fed channel) AC50, cells fed with added oleic acid.

In general, AC50 refers to the midpoint of the concentration-response curve, whichever way the signal moves. Low readings indicate greater potency, high ones weaker potency.

Regarding `COc1cc(CC(=O)OCC(=O)NC2CCCCC2)cc(OC)c1OC`, the cell number change was -23.2%. The AC50 under setting [1] is 0.00517 µM [falling, full curve, poor fit].

As to `Cc1c(=O)n(OCc2ccc(Cl)cc2)c2ccccc2[n+]1[O-]`, the AC50 under setting [2] is 3.66 µM [falling, full curve, poor fit].

`O=C(c1nc2nc(-c3ccccc3)cc(C(F)(F)F)n2n1)N1CCOCC1`: the cell number change is 45.7%. Also, under setting [1], the AC50 was 2.31 µM [rising, partial curve].

As to `COc1ccccc1NC(=O)/C(C#N)=C/C=C/c1ccco1`, the cell number change was -2.74%. Further, under setting [1], the AC50 is 0.651 µM [falling, single point]. The AC50 under setting [2] was 7.31 µM [rising, partial curve].

Consider `Cc1ccc2cc(C(c3nnnn3C3CCCC3)N3CCN(c4ccccc4)CC3)c(=O)[nH]c2c1` (centres undefined), for which the cell number change was 23.8%. In addition, the AC50 under setting [2] is 2.06 µM [rising, partial curve].

Consider `Cc1cc(C)c(C(=O)Nc2ccc(S(=O)(=O)Nc3onc(C)c3C)cc2)c(C)c1`, for which the cell number change is -33.9%. The AC50 under setting [1] was 23.1 µM [falling, partial curve]. Further, under setting [2], the AC50 was 20.6 µM [falling, partial curve, poor fit].

As for `CCOC(=O)N1CCN(S(=O)(=O)c2ccc(F)c(C(=O)Nc3ccc(C)c(Cl)c3)c2)CC1`, the cell number change is -8.98%.

Consider `Cc1nn(Cc2noc(C(=O)NCCCn3ccnc3)n2)c(C)c1Br`, for which the AC50 under setting [2] was 0.13 µM [rising, full curve, poor fit].

Consider `C=CCNC(=O)/C(C#N)=C/c1ccc(SC)cc1`, for which the cell number change came to 35.4%.

On to `COc1cccc(COC(=O)c2ccc(S(=O)(=O)N3CCC(C)CC3)cc2)c1OC`, for which the cell number change was -1.81%.

`CC(C)N(Cc1ccccc1)C(=O)C1CCCN(c2ncnc3c2nc2n3CCCCC2)C1` (centres undefined): the cell number change is -43.5%. Further, the AC50 under setting [1] is 32.6 µM [falling, single point]. Further, the AC50 under setting [2] was 3.26 µM [falling, partial curve].

For `C[C@H](NC(=O)c1nc[nH]c1C(=O)N[C@@H](CCCCN)C(=O)OC(C)(C)C)C(=O)OC(C)(C)C`, the cell number change was -46.6%. Under setting [1], the AC50 is 10.3 µM [falling, partial curve, poor fit]. In addition, the AC50 under setting [2] was 18.4 µM [rising, partial curve].

For `CC(C)(C)C(=O)Nc1ccc(C(=O)N/N=C/C2CC3C=CC2C3)cc1` (centres undefined), the cell number change turned out to be 16.2%. The AC50 under setting [2] was 2.06 µM [rising, full curve, poor fit].

For the compound `Cc1ccc(NC(=O)CCC(=O)c2cccs2)cc1`, the cell number change is 40.6%. Besides, the AC50 under setting [1] was 20.6 µM [rising, single point].

Turning to `COc1cc(C(=O)NNC(=O)c2cc(-c3ccccc3)n[nH]2)cc(OC)c1C`, the cell number change was -24.8%. Also, the AC50 under setting [2] is 20.6 µM [falling, single point].

Take `CCCCCCSc1ccc([C@@H]2[C@@H]3C(=O)N(CC)C(=O)[C@@H]3[C@]3(C(=O)OC)CCCCN23)cc1OC`: the cell number change was -59.2%. The AC50 under setting [1] was 18.4 µM [falling, single point]. The AC50 under setting [2] is 11.6 µM [falling, partial curve].

`Cc1[nH]n(-c2ccccc2)c(=O)c1C=Nc1cnc2ccccc2c1`: the cell number change was -16.6%. In addition, under setting [2], the AC50 is 2.31 µM [falling, partial curve, poor fit].

For the compound `CCn1c(=O)c2cc(C(=O)NCCC(C)C)sc2c2ccccc21`, the cell number change was 16.2%.

With `CC(=O)Oc1cccc(C(=O)Nc2ccccc2C(=O)N2CCCC2)c1`, the cell number change amounted to 37.3%. The AC50 under setting [1] is 29.1 µM [rising, single point].

For `Cc1ccc(S(=O)(=O)N2CCC(C(=O)N[C@H](C(=O)NCc3ccco3)C(C)C)CC2)cc1`, the cell number change was 31.5%. Moreover, under setting [1], the AC50 was 3.66 µM [rising, partial curve]. Moreover, under setting [2], the AC50 is 0.13 µM [falling, full curve, poor fit].

On to `Cc1cc(Cl)ccc1OCC(=O)Nc1ccncc1`, for which the cell number change was -34.9%. Also, the AC50 under setting [1] is 10.3 µM [falling, partial curve].

On to `COC(=O)c1ccc(NC(=O)COc2cccc(-n3cnnn3)c2)cc1`, for which the cell number change is -8.85%. Besides, the AC50 under setting [2] is 0.58 µM [rising, single point].

For the compound `Cc1ncc(CO)c2c1Oc1nc(-c3ccccc3)nc(SCC(=O)N(C)c3ccccc3)c1C2`, the cell number change was -7.67%. Moreover, the AC50 under setting [2] is 29.1 µM [falling, single point].

As to `Cc1ccccc1NC(=O)Cn1c([N+](=O)[O-])cnc1C`, the cell number change amounted to 93.8%. Also, the AC50 under setting [1] is 25.9 µM [rising, single point]. Besides, under setting [2], the AC50 was 3.66 µM [rising, full curve].

`Brc1ccccc1Cn1c(-c2cscn2)nc2ccccc21`: the cell number change was 70.3%. Besides, the half-maximal activity concentration (AC50) under setting [1] was 3.26 µM [rising, full curve]. Besides, the AC50 under setting [2] was 1.3 µM [rising, partial curve].

For `CCOC(=O)N1CCN(S(=O)(=O)c2ccc(C(=O)N(CCCN(C)C)c3nc4ccc(OC)cc4s3)cc2)CC1`, the cell number change worked out at 32.3%.

In the case of `COCCCNC(=O)C(=O)N/N=C/c1cc2c(cc1Br)OCO2`, the cell number change was 113%. Also, under setting [1], the AC50 was 32.6 µM [rising, partial curve, poor fit]. Besides, under setting [2], the AC50 was 29.1 µM [rising, partial curve].

As for `Cc1ccc(-n2c3c(cc(C(=O)NCc4ccco4)c2=O)C(=O)CC(C)(C)C3)cc1`, the cell number change is -11.7%. In addition, the AC50 under setting [2] was 29.1 µM [falling, single point].

On to `CC(O)c1nc2ccccc2n1Cc1nnc(-c2ccc(Cl)cc2)o1` (centres undefined), for which the cell number change worked out at 3.04%. Also, the AC50 under setting [1] was 2.91 µM [rising, partial curve, poor fit].

In the case of `COc1ccc(C2CC(=O)c3cnc(N4CCN(Cc5ccccc5)CC4)nc3C2)cc1` (centres undefined), the cell number change was -33.9%. For the same compound, the AC50 under setting [1] is 0.58 µM [falling, full curve, poor fit].

As for `COCCC(=O)N1CCC(Oc2ccc(C(=O)NCc3csc(C)n3)cc2)CC1`, the AC50 under setting [2] was 6.51 µM [rising, single point].

For `CN1C(=O)/C(=C2/C=Cc3ccccc3N2CCCS(=O)(=O)O)SC1=S`, the cell number change is -0.443%. Further, the AC50 under setting [2] is 18.4 µM [falling, single point].

With `Cc1ccc(-c2nn(-c3ccccc3)cc2C2SCC(=O)N2Cc2ccccc2)o1` (centres undefined), the cell number change turned out to be 4.06%.

With `Cc1ccc(S(=O)(=O)Nc2nc(C)c(C(=O)N/N=C/c3ccccc3)s2)cc1`, the cell number change was determined as 29.1%. Besides, under setting [2], the AC50 is 29.1 µM [rising, single point].

With `COC(=O)c1c(NC(=O)CC2SC(N)=NC2=O)sc2c1CCC(C)C2` (centres undefined), the cell number change was 17.2%. Under setting [1], the AC50 was 6.51 µM [falling, single point].

For the compound `Cc1noc(C)c1COc1ccccc1C(=O)N1CCN(S(=O)(=O)c2cccc(Cl)c2)CC1`, the cell number change was 37.7%. Moreover, under setting [1], the AC50 is 4.11 µM [rising, full curve, poor fit].

For `CCN1C(=NCCOC)N[C@@H](c2cccs2)C(C(=O)OC)=C1C`, the cell number change worked out at 3.59%.

As for `O=C(O)c1ccc2c(c1)C(=O)N(NC(=O)c1ccc(O)cc1)C2=O`, the cell number change was -25.1%. Besides, under setting [1], the AC50 was 0.651 µM [falling, full curve, poor fit]. The AC50 under setting [2] was 0.651 µM [falling, full curve].

In the case of `Cn1nnnc1SCC(=O)NCc1ccco1`, the cell number change is -28.9%. In addition, the AC50 under setting [2] was 29.1 µM [falling, single point].

For the compound `COc1ccc(OCc2cc(C(=O)N3CCCC(OC)C3)no2)c2ccccc12` (centres undefined), the cell number change was found to be 14.9%. Besides, under setting [2], the AC50 is 16.4 µM [rising, single point].

With `COC(=O)c1ccc(OCCOCCOc2cccc3ccc(C)nc23)cc1`, the cell number change came out at 20.6%.

With `Cc1ccc(NC(=O)CCNC(=O)Nc2ccccc2)cc1S(=O)(=O)N(C)C`, the cell number change was -50.7%. In addition, under setting [1], the AC50 was 29.1 µM [falling, single point]. Further, under setting [2], the AC50 is 29.1 µM [falling, single point].

As to `O=C(NC(=S)N1CCCCCC1)C1CC1`, the AC50 under setting [1] was 0.58 µM [falling, single point].

With `O=C(NNC(=O)C1CC(c2cccs2)=NO1)NC1CCCCC1` (centres undefined), the cell number change stood at 51.7%. The AC50 under setting [2] is 23.1 µM [rising, partial curve, poor fit].

For the compound `O=C(NC1CC2CCCC(C1)N2Cc1cccs1)c1ccc([N+](=O)[O-])cc1` (centres undefined), the cell number change was -20.1%. For the same compound, the AC50 under setting [2] was 29.1 µM [rising, partial curve, poor fit].

Regarding `CCN(Cc1ccccc1)S(=O)(=O)c1cc(C(=O)NC(C)C2CC3CCC2C3)ccc1OC` (centres undefined), the cell number change is 50%. Under setting [1], the AC50 is 32.6 µM [rising, single point].

As for `COC(=O)c1cc(C(=O)OCC(=O)NC2CCCCCCC2)cc([N+](=O)[O-])c1`, the cell number change is -23%. The AC50 under setting [2] is 0.0058 µM [falling, full curve].

With `O=C(NCc1ccc(Cl)cc1)c1ccc(Cl)cc1[N+](=O)[O-]`, the cell number change came out at 158%. For the same compound, the AC50 under setting [2] is 3.66 µM [falling, partial curve, poor fit].

As for `COc1cccc(C2C(C(=O)OCc3ccccc3)=C(C)Nc3ncnn32)c1OC` (centres undefined), the cell number change turned out to be 1.84%. Besides, the AC50 under setting [2] is 1.3 µM [falling, full curve].

On to `CN=c1scc(-c2ccccc2F)n1/N=C/c1ccc[nH]1`, for which the AC50 under setting [2] is 0.326 µM [rising, single point].

Regarding `Cc1cc(NC2CCCC2)n2ncc(-c3ccccc3)c2n1`, the cell number change came out at 79.2%. For the same compound, under setting [1], the AC50 was 25.9 µM [rising, partial curve]. For the same compound, the AC50 under setting [2] is 29.1 µM [falling, single point].

In the case of `CN(CCC#N)C(=O)COc1ccc(Br)cc1Cl`, the cell number change came out at 84.6%. Moreover, the AC50 under setting [1] was 25.9 µM [rising, single point].

For `COc1ccc(S(=O)(=O)NCC(c2ccc(F)cc2)N2CCN(C)CC2)cc1` (centres undefined), the cell number change was -32%. In addition, the AC50 under setting [1] was 0.651 µM [falling, full curve, poor fit]. Further, the AC50 under setting [2] was 5.8 µM [falling, full curve].

`O=C(CN1CCCCCC1)NCc1ccccc1`: the cell number change is -15.4%. In addition, under setting [2], the AC50 was 0.731 µM [rising, single point].

On to `CC12CC3(C)CC(C)(C1)CC(C(=O)NCc1cccnc1)(C2)C3`, for which, under setting [2], the AC50 is 6.51 µM [rising, single point].

For `O=C(N/N=C/c1ccccc1O)C1CC(=O)N(c2ccc(Cl)cc2)C1` (centres undefined), the cell number change came out at 18.5%. Further, the AC50 under setting [2] was 29.1 µM [falling, single point].

Turning to `CC(C)c1[nH]c(=O)c(C#N)c2c1CSC(C)(C)C2`, the cell number change is -30.7%. For the same compound, the AC50 under setting [1] is 4.11 µM [falling, full curve]. In addition, under setting [2], the AC50 is 0.366 µM [falling, partial curve, poor fit].
